Measured values published in article PMC10798561.
Results are given in words; binding and its absence hold for the method and conditions named. Some entries that bind do so weakly or less than the wild type. Tags and fused reporters may be left off the sequences shown.

Protein sequences, listed by entry. Tags and fused reporters are not part of them. Lines headed by an entry give the natural chain unless they say otherwise; changes in a name come on top. Chains listed by the source or under a name are the forms on record and can include a tag or linker. Residues count along the entry.
UniProt P04608: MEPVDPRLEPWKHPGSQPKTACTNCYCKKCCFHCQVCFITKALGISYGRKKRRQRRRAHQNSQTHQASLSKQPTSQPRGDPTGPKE
HIV-1 HXB2 Tat residues 1 to 72 fused to GST (HIV-1 (HXB2)): residues 1-72 of P04608
HIV-1 HXB2 Tat residues 1 to 20 fused to GST (HIV-1 (HXB2)): residues 1-20 of P04608

Columns and labels:
[1] = molecular target: HIV-1 HXB2 Tat residues 1 to 20 fused to GST (HIV-1 (HXB2)) (UniProt P04608); test: pull-down; reciprocal in vitro pull-down using MBP-fused TRAF6 as preys and GST-fused Tat truncations (fig. S2B); both purified
[2] = molecular target: HIV-1 HXB2 Tat residues 1 to 72 fused to GST (HIV-1 (HXB2)) (UniProt P04608); test: as above

B1: TRAF6 TRAFC (residues 346 to 504) fused to maltose-binding protein (domain or fragment, UniProt Q9Y4K3 346-504)
chain: AQQCNGIYIWKIGNFGMHLKCQEEEKPVVIHSPGFYTGKPGYKLCMRLHLQLPTAQRCANYISLFVHTMQGEYDSHLPWPFQGTIRLTILDQSEAPVRQNHEEIMDAKPELLAFQRPTIPRNPKGFGYVTFMHLEALRQRTFIKDDTLLVRCEVSTRFD
In the case of B1, the binding [1] is reported as “no binding” and the binding [2] is reported as “binds weakly”.
